Reference: US20230143091A1 (SORRISO PHARMACEUTICALS, published 2023)
No constants are given. Whether binding was seen depends on the method and setting. Some binding calls cover weakened binding; strength is not graded here.

Amino acid sequences for entries named in this document (tags omitted). Residues count along the entry.
UniProt P01375, residues 77-233: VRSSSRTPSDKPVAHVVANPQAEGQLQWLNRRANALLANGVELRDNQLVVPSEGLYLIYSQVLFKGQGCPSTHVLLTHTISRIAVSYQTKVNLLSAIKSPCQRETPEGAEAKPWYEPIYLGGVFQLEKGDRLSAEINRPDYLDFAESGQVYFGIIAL

Experiments:
[1] = molecular target: T1, IL-7R (as used in the IL-7/IL-7R neutralisation ELISA) (UniProt P16871); experiment: IL-7/IL-7R neutralisation ELISA; blocked ligand IL-7, bound IL-7 detected with biotinylated anti-hIL-7 and Extravidin-HRP
T1 sequence (looked up): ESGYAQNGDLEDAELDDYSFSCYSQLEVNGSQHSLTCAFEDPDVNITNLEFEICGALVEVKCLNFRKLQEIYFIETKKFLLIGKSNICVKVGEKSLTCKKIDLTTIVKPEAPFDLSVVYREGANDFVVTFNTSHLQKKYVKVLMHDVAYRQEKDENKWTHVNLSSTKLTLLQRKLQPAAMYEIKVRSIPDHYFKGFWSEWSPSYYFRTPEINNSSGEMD

[2] = molecular target: T1, IL-7R (as used in the IL-7/IL-7R neutralisation ELISA); experiment: IL-7/IL-7R ELISA, reference monomer
[3] = molecular target: T2, human TNFα (human, UniProt P01375 77-233); experiment: competition ELISA on coated human TNFα; competitor biotinylated adalimumab; before trypsin
T2 construct: also called TNF-alpha; Tumour necrosis factor-alpha

[4] = molecular target: T2, human TNFα; experiment: competition ELISA on plate-coated human TNFα; competitor 2 nM biotinylated adalimumab, detected with ExtrAvidin-HRP
Description: ELISA plates were coated with 100 ng/mL human TNFα in 250 μg/mL bovine serum albumin (BSA) in phosphate buffered saline (1×PBS) and blocked with 1% BSA in 1×PBS.

[5] = molecular target: T1, IL-7R (as used in the IL-7/IL-7R neutralisation ELISA); experiment: IL-7/IL-7R ELISA, before trypsin treatment

Measured: binding

B1: ID-A62U (VHH)
VHH: DVQLVESGGGLVQAGGSLRLSCESSISTFSSDAMGWFRQAPGKELEFLAAIGWSGAVTHYSDSVKGRFTISRDNAKNTVYLQMNSLRAEDTGRYYCAEDYDTDVWQYWGQGTQVTVSS
notes: Produced in S. cerevisiae; Comprises E1D and R45L mutations relative to ID-A40U
binds: [1] | [2]

B2: FU3K bihead (bispecific antibody)
chain: DVQLVESGGGLVQPGGSLKLSCAASGFDFSSHWMYWVRQAPGKELEWLSEINTNGLITHYGDSVKGRFTVSRNNAANKMYLELTRLEPEDTALYYCARNQHGLNKGQGTQVTVSSGGGGSGGGGSKGGGGSGGGGSEVQLVESGGGLVQAGGSLRLSCESSISTFSSDAMGWFRQAPGKELEFLAAIGWSGAVTHYSDSVKGRFTISRDNAKNTVYLQMNSLRAEDTGRYYCAEDYDTDVWQYWGQGTQVTVSS
notes: Produced in S. cerevisiae; also called pre-digestion FU3K; heterobihead
not listed: [2]
binds: all other assays above
